Laboratory results: PubChem BioAssay AID504795 (Drosophila RNAi Screening Center, 2011)

Purpose: 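Fly genes whose loss alters neurite growth or neural cell form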 (primary screen)
Cell system: primary Drosophila neurons and glia
Reagent: long dsRNA against Drosophila genes, 250 ng dsRNA per well
Duration: one week
Read-out: 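GFP-labelled neurons and glia imaged live by automated microscope one week after 250 ng dsRNA per well; morphology scored by eye as descriptive phenotype terms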
The reagents shown are a selection, not the whole library. 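Every listed dsRNA shows some phenotype; how reagents were selected for listing is not stated.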 Names joined by + are all predicted targets of the reagent. No sequences are given here.

nkd (GeneID 44843) [DRSC11376] | phenotype seen, replicate 1: reduced axon outgrowth
Spps (GeneID 42882) [DRSC15856] | phenotype seen, replicate 1: axon bundles split apart
RpL6 (GeneID 43723) [DRSC14323] | phenotype seen, replicate 1: too many neurite branches
RpL6 (GeneID 43723) [DRSC22384] | phenotype seen, replicate 1: too many neurite branches; phenotype seen, replicate 2: axon bundles split apart
Tep5Psi (GeneID 35250) [DRSC02183] | phenotype seen, replicate 1: too many neurite branches
Tep5Psi (GeneID 35250) [DRSC02184] | phenotype seen, replicate 1: too many neurite branches
OS9 (GeneID 59167) [DRSC02700] | phenotype seen, replicate 1: beaded; swollen axons
CG14258 (GeneID 43260) [DRSC14753] | phenotype seen, replicate 1: abnormal cell clusters
Galphaf (GeneID 39861) [DRSC11171] | phenotype seen, replicate 1: axon bundles split apart
Hus1-like (GeneID 40598) [DRSC12353] | phenotype seen, replicate 1: too many neurite branches
zfh1 (GeneID 43650) [DRSC17098] | phenotype seen, replicate 1: axon bundles split apart
bma (GeneID 5740442) [DRSC09896] | phenotype seen, replicate 1: abnormal cell clusters
bma (GeneID 5740442) [DRSC10164] | phenotype seen, replicate 1: axon bundles split apart
orb2 (GeneID 39018) [DRSC10541] | phenotype seen, replicate 1: axon bundles split apart
sav (GeneID 252554) [DRSC14681] | phenotype seen, replicate 1: axon bundles split apart
Kaz1-ORFB + Kaz1-ORFA [DRSC08669] | phenotype seen, replicate 1: too many neurite branches
Cep89 (GeneID 36733) [DRSC07110] | phenotype seen, replicate 1: fewer cells
hoka (GeneID 38588) [DRSC08313] | phenotype seen, replicate 1: axon bundles split apart
tkv (GeneID 33753) [DRSC03623] | phenotype seen, replicate 1: sheet-like cell extensions
Pax (GeneID 35215) [DRSC01703] | phenotype seen, replicate 1: axon bundles split apart
HP1e (GeneID 41108) [DRSC16379] | phenotype seen, replicate 1: axon bundles split apart
E(spl)m3-HLH (GeneID 43156) [DRSC16694] | phenotype seen, replicate 1: axon bundles split apart
CG15048 (retired record) (GeneID 32842) [DRSC19624] | phenotype seen, replicate 1: axon bundles split apart
CG13033 (GeneID 39839) [DRSC09913] | phenotype seen, replicate 1: cell fragments present
RpL22 (GeneID 31022) [DRSC18707] | phenotype seen, replicate 1: reduced axon outgrowth
RpL22 (GeneID 31022) [DRSC22819] | phenotype seen, replicate 1: too many neurite branches
Syp (GeneID 42460) [DRSC15286] | phenotype seen, replicate 1: too many neurite branches
Khc (GeneID 36810) [DRSC07448] | phenotype seen, replicate 1: beaded; swollen axons
pyx (GeneID 38037) [DRSC08511] | phenotype seen, replicate 1: too many neurite branches
Mzt1 (GeneID 10178948) [DRSC07979] | phenotype seen, replicate 1: axon bundles split apart
CG34136 (GeneID 4379892) [DRSC01833] | phenotype seen, replicate 1: reduced axon outgrowth
Vha16-3 (GeneID 317846) [DRSC10872] | phenotype seen, replicate 1: sheet-like cell extensions
CG15283 (GeneID 50454) [DRSC01980] | phenotype seen, replicate 1: too many neurite branches
MED27 (GeneID 40696) [DRSC12205] | phenotype seen, replicate 1: too many neurite branches
mRpL55 (GeneID 42290) [DRSC14764] | phenotype seen, replicate 1: too many neurite branches
CG14615 (GeneID 33129) [DRSC20627] | phenotype seen, replicate 1: axon bundles split apart
Ccdc114 (GeneID 42024) [DRSC15025] | phenotype seen, replicate 1: abnormal cell clusters
Grx1 (GeneID 40053) [DRSC10727] | phenotype seen, replicate 1: reduced axon outgrowth
Pdp1 (GeneID 45588) [DRSC08896] | phenotype seen, replicate 1: too many neurite branches
CG3335 (GeneID 39119) [DRSC10358] | phenotype seen, replicate 1: sheet-like cell extensions
CG17362 (GeneID 39545) [DRSC10267] | phenotype seen, replicate 1: sheet-like cell extensions
Act79B (GeneID 40444) [DRSC11604] | phenotype seen, replicate 1: reduced axon outgrowth
Rac2 (GeneID 38831) [DRSC11262] | phenotype seen, replicate 1: sheet-like cell extensions
CG11052 (GeneID 49997) [DRSC14288] | phenotype seen, replicate 1: reduced axon outgrowth
Gr64f (GeneID 117477) [DRSC08447] | phenotype seen, replicate 1: axon bundles split apart
Cyp6a15Psi (GeneID 3772535) [DRSC07377] | phenotype seen, replicate 1: abnormal cell clusters
SF2 (GeneID 53443) [DRSC16845] | phenotype seen, replicate 1: too many neurite branches
CG43078 (GeneID 38981) [DRSC21541] | phenotype seen, replicate 1: axon bundles split apart
CG43078 (GeneID 38981) [DRSC22327] | phenotype seen, replicate 1: abnormal cell clusters
CG6432 (GeneID 42901) [DRSC16039] | phenotype seen, replicate 1: beaded; swollen axons
Lcp65APsi (GeneID 3771993) [DRSC10342] | phenotype seen, replicate 1: sheet-like cell extensions
CYLD (GeneID 34380) [DRSC02870] | phenotype seen, replicate 1: sheet-like cell extensions
PCNA2 (GeneID 35257) [DRSC02030] | phenotype seen, replicate 1: axon bundles split apart
otp (GeneID 37364) [DRSC04050] | phenotype seen, replicate 1: too many neurite branches
otp (GeneID 37364) [DRSC04707] | phenotype seen, replicate 1: sheet-like cell extensions
CG17574 (GeneID 36415) [DRSC06681] | phenotype seen, replicate 1: sheet-like cell extensions
Cda5 (GeneID 33158) [DRSC21330] | phenotype seen, replicate 1: axon bundles split apart
CG15185 (GeneID 40798) [DRSC12565] | phenotype seen, replicate 1: beaded; swollen axons
CG17359 (GeneID 39549) [DRSC10265] | phenotype seen, replicate 1: sheet-like cell extensions
lok (GeneID 35288) [DRSC03567] | phenotype seen, replicate 1: axon bundles split apart
